Test results published in PubChem BioAssay AID2417 (National Center for Advancing Translational Sciences (NCATS), 2010).
Out of some 140,000 compounds screened, about 4,300 (3.1%) were called active. Inconclusive results, whose numbers are uncertain, are shown with a selection of clear calls.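 Rule for the calls: active = readout at or below -70, meaning at least 70% loss of cells showing the perinucleolar compartment, a nuclear body marking cancer cells; inconclusive = readout between -30 and a set limit; inactive = the rest.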

Assay: High Content Assay for Compounds that inhibit the Assembly of the Perinucleolar Compartment;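 note: plate controls were DMSO wells for no effect and camptothecin positive control wells for full effect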
Settings: PC3M PTB-GFP, PNC prevalence imaging, 16 h; at 10 µM; hits give low values
Procedure, shortened: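 Read-out is percentage of cells bearing a perinucleolar compartment, from automated 20x imaging of fixed, Hoechst-stained PC3M PTB-GFP cells. Cells were seeded 4 h, then exposed 16 h to compound (23 nl of library stock) in duplicate plates.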
With O=C(NCc1ccc2c(c1)OCO2)c1ccc2snnc2c1 the activity change (PNC), negative = inhibition was inconclusive: -58%. In the case of CCOC(=O)c1ccc(Nc2c(CC)c(C)nc3ncnn23)cc1, the activity change (PNC), negative = inhibition is reported as inactive: -29.7%. In the case of COc1ccc(-c2ccc(-c3noc(-c4ccccc4C)n3)c(OC)n2)cc1, the activity change (PNC), negative = inhibition is reported as inconclusive: -32.3%. In the case of Cc1ccc(OCc2nc(-c3ccccn3)no2)c(Br)c1, the activity change (PNC), negative = inhibition is reported as inactive: 9.35%. For N#C/C(=C/c1cn(-c2ccccc2)nc1-c1cccc(OCc2ccccc2)c1)C(=O)NCCCn1ccnc1, the activity change (PNC), negative = inhibition was inconclusive: -46.9%. In the case of COc1ccc(S(=O)(=O)N2CCN(C3CCCCCCC3)CC2)cc1, the activity change (PNC), negative = inhibition is reported as inconclusive: -54.4%. For Cc1ccc(NC(=O)c2ccco2)c(NC(=O)c2cccs2)c1, the activity change (PNC), negative = inhibition was inconclusive: -37.1%. With CCN1C(=O)C(O)(CC(=O)/C=C/C=C/c2ccccc2)c2ccccc21 (configuration not stated) the activity change (PNC), negative = inhibition was inactive: 27.7%. For Cn1c(=O)c2c(nc(N3CCCCCC3)n2CCSc2nc3ccccc3o2)n(C)c1=O, the activity change (PNC), negative = inhibition was inconclusive: -43.1%. In the case of C=CCn1c(NCCO)nc2c1c(=O)n(C)c(=O)n2C, the activity change (PNC), negative = inhibition is reported as inactive: 10.2%. With Cc1cc(C)n(-c2nnc(SCC(=O)NC3CCCC3)c3ccccc23)n1 the activity change (PNC), negative = inhibition was inconclusive: -31.5%. For CC(=C1C(=O)c2ccccc2C1=O)N1CCN(Cc2ccccc2)CC1, the activity change (PNC), negative = inhibition was inconclusive: -40.2%. In the case of NS(=O)(=O)c1ccc(S(=O)(=O)N(Cc2ccccc2F)CC2CCCO2)cc1 (configuration not stated), the activity change (PNC), negative = inhibition is reported as inconclusive: -48.4%. With Clc1ccc(-c2cc3ccccc3[nH]2)cc1 the activity change (PNC), negative = inhibition was inconclusive: -40.5%. With O=c1c2c3c(sc2ncn1/N=C/c1ccc([N+](=O)[O-])o1)CCCC3 the activity change (PNC), negative = inhibition was inactive: 29.7%. With CCOc1cc(NC(=S)Nc2cccc(C)c2)c(OCC)cc1NC(=O)CC(C)C the activity change (PNC), negative = inhibition was inconclusive: -41.9%. With Cc1ccc(NC2=C(Cl)C(=O)OC2NC(=O)c2ccccc2)cc1 (configuration not stated) the activity change (PNC), negative = inhibition was inconclusive: -76.9%. In the case of CN(C)C(=O)N1CCC(C(=O)NC2CCCCCCC2)CC1, the activity change (PNC), negative = inhibition is reported as inconclusive: -54.1%. In the case of c1ccc(-c2noc(CSc3nnnn3C3CCCCC3)n2)cc1, the activity change (PNC), negative = inhibition is reported as inactive: -12.3%. With COc1cccc(C2/C(=C(/O)c3ccc(C)cc3)C(=O)C(=O)N2Cc2ccco2)c1 (configuration not stated) the activity change (PNC), negative = inhibition was inconclusive: -53.4%. For CCOc1cc(C)nc(N2CCN(C3CCCCC3)CC2)n1, the activity change (PNC), negative = inhibition was inconclusive: -40.4%. In the case of O=Cc1ccc(Oc2cc(-c3ccccc3)nc(-c3ccccc3)n2)cc1, the activity change (PNC), negative = inhibition is reported as inactive: 2.81%. In the case of CC(C)n1c(SCC(=O)Nc2nc3c(s2)CCCC3)nc2c1c(=O)n(C)c(=O)n2C, the activity change (PNC), negative = inhibition is reported as active: -100%. For CC(C)Sc1oc(-c2ccco2)nc1S(=O)(=O)c1ccc(F)cc1, the activity change (PNC), negative = inhibition was inconclusive: -65.5%. In the case of Cc1cccc(Cn2c(C(C)O)nc3ccccc32)c1 (configuration not stated), the activity change (PNC), negative = inhibition is reported as inconclusive: -70%. With COc1ccc(-c2nnn(CC(=O)c3ccc4c(c3)OCCO4)n2)cc1OC the activity change (PNC), negative = inhibition was inconclusive: -51%. For COc1ccc(NC(=O)c2ccc(-n3cccn3)nc2)c(OC)c1, the activity change (PNC), negative = inhibition was inconclusive: -42.2%. With CCC(C)c1c(O)nc(SCC(=O)c2ccccc2)[nH]c1=O (configuration not stated) the activity change (PNC), negative = inhibition was inconclusive: -47.8%. With CCOc1ccc(-c2nnn(CC(=O)c3cc(OC)ccc3OC)n2)cc1 the activity change (PNC), negative = inhibition was inactive: -4.38%. For COc1cc(C(c2c(C)[nH][nH]c2=O)c2c(C)[nH][nH]c2=O)ccc1OC(C)C, the activity change (PNC), negative = inhibition was active: -80.2%. With O=C(Nc1nc2c(s1)C(=O)CCC2)c1ccccc1 the activity change (PNC), negative = inhibition was inconclusive: -50.6%. In the case of CNC(=O)c1sc(-c2ccccc2)nc1C, the activity change (PNC), negative = inhibition is reported as active: -82.8%. For O=C(COc1ccc(Cl)cc1)NCCCn1ccnc1, the activity change (PNC), negative = inhibition was inconclusive: -58.4%. With Cn1nc(C(=O)NCc2cccnc2)c2ccccc2c1=O the activity change (PNC), negative = inhibition was inactive: -17.1%. In the case of C=C(C)C1Cc2c(C)nn(-c3ccccn3)c2C1 (configuration not stated), the activity change (PNC), negative = inhibition is reported as inconclusive: -43.9%. In the case of CCOC(=O)C1(C)C=C(Nc2ccc(OC)cc2)C(=O)N1c1ccc(OC)cc1 (configuration not stated), the activity change (PNC), negative = inhibition is reported as inactive: 24.9%. With CCN(CC)S(=O)(=O)c1ccc2c(c1)nc(CCC(=O)Nc1ccccc1Cc1ccccc1)n2CC the activity change (PNC), negative = inhibition was inactive: -6.83%. With Cc1cc(C)cc(C(=O)/C=C2\NC(=O)CS2)c1 the activity change (PNC), negative = inhibition was inactive: 1.28%. In the case of Nc1nnnn1/N=C/c1ccco1, the activity change (PNC), negative = inhibition is reported as inconclusive: -42.2%. For COc1ccc(C2CC(c3c(-c4ccccc4)c4cc(Cl)ccc4[nH]c3=O)=NN2S(C)(=O)=O)cc1 (configuration not stated), the activity change (PNC), negative = inhibition was inactive: -13.3%. For C/C=N/NC(=O)CCNC(=O)c1ccccc1, the activity change (PNC), negative = inhibition was inactive: 8.5%. In the case of O=C(O)c1cccc(NC(=O)C2C3C=CC(C3)C2C(=O)O)c1 (configuration not stated), the activity change (PNC), negative = inhibition is reported as inconclusive: -55.1%. In the case of Cc1ccc(/C=C/C(=O)Nc2cccc3ncccc23)o1, the activity change (PNC), negative = inhibition is reported as inactive: -0.164%. In the case of COc1ccc(OC)c(S(=O)(=O)Nc2c(F)cccc2F)c1, the activity change (PNC), negative = inhibition is reported as inconclusive: -49.1%. In the case of Cc1ccc(S(=O)(=O)Nc2ccc(C(=O)OCC(=O)N(CCC#N)c3ccccc3)cc2)cc1C, the activity change (PNC), negative = inhibition is reported as active: -86.9%. For CCOC(=O)C(NC(=O)N(C)C)(Nc1sc(C)c(CC)c1C#N)C(F)(F)F (configuration not stated), the activity change (PNC), negative = inhibition was inactive: -9.25%. With CC(C)CCn1nnnc1C(c1ccccc1)N1CCC(C(N)=O)CC1 (configuration not stated) the activity change (PNC), negative = inhibition was inconclusive: -38.4%.
